Results from one PubChem assay

Data taken from PubChem BioAssay AID504749, deposited by NCATS (2011).

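Malaria parasite (P. falciparum) lines kept in red blood cells; parasite DNA is measured by SYBR Green fluorescence after lysis, 72 h after compound addition.
Each compound was titrated across a series from about 0.000037 to 29 µM.
The number is the fitted AC50, the concentration giving a half-maximal change in signal; a lower value means higher potency, whether the curve shows a decrease or an increase.
Calls follow the curve class and fit quality: every row here is inconclusive, covering signal-raising curves and weak, poorly fitted, partial or highest-dose-only inhibition curves.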

Values are in µM.
All entries here are filed as inconclusive.
These entries are mostly ones the record files as inconclusive; other results of the assay are not listed here.
Potencies fitted to partial, single-point or poorly fitting curves are rough.

CCOc1nc2cccc(C(=O)O)c2n1Cc1ccc(-c2ccccc2-c2nn[nH]n2)cc1 [ATS95] read Potency 17.78 µM (inhibitor, single point).
CCOc1nc2cccc(C(=O)O)c2n1Cc1ccc(-c2ccccc2-c2nn[nH]n2)cc1 [CP291] read Potency 13.46 µM (inhibitor, partial curve, poor fit).
CCOc1nc2cccc(C(=O)O)c2n1Cc1ccc(-c2ccccc2-c2nn[nH]n2)cc1 [N140] read Potency 12.59 µM (inhibitor, single point).
CCOc1nc2cccc(C(=O)O)c2n1Cc1ccc(-c2ccccc2-c2nn[nH]n2)cc1 [CP252] read Potency 10 µM (inhibitor, single point).
CCOc1nc2cccc(C(=O)O)c2n1Cc1ccc(-c2ccccc2-c2nn[nH]n2)cc1 [P94_40] read Potency 17.78 µM (inhibitor, single point).
CCOc1nc2cccc(C(=O)O)c2n1Cc1ccc(-c2ccccc2-c2nn[nH]n2)cc1 [DIV14] read Potency 10.69 µM (inhibitor, partial curve).
CCOc1nc2cccc(C(=O)O)c2n1Cc1ccc(-c2ccccc2-c2nn[nH]n2)cc1 [W2] read Potency 15.1 µM (inhibitor, single point).
Cc1c(Cl)cccc1Nc1ccccc1C(=O)O [7G8] read Potency 10 µM (inhibitor, single point).
Cc1c(Cl)cccc1Nc1ccccc1C(=O)O [ICS] read Potency 14.13 µM (inhibitor, partial curve).
Cc1c(Cl)cccc1Nc1ccccc1C(=O)O [HB3] read Potency 11.22 µM (inhibitor, single point).
CCN(CC)CCNC(=O)c1c(C)[nH]c(/C=C2\C(=O)Nc3ccc(F)cc32)c1C [CP215] read Potency 19.01 µM (inhibitor, single point).
CCN(CC)CCNC(=O)c1c(C)[nH]c(/C=C2\C(=O)Nc3ccc(F)cc32)c1C [CP325] read Potency 16.94 µM (inhibitor, single point).
CCN(CC)CCNC(=O)c1c(C)[nH]c(/C=C2\C(=O)Nc3ccc(F)cc32)c1C [CP201] read Potency 15.1 µM (inhibitor, single point).
CCN(CC)CCNC(=O)c1c(C)[nH]c(/C=C2\C(=O)Nc3ccc(F)cc32)c1C [CP266] read Potency 13.46 µM (inhibitor, single point).
CCN(CC)CCNC(=O)c1c(C)[nH]c(/C=C2\C(=O)Nc3ccc(F)cc32)c1C [CP194] read Potency 16.94 µM (inhibitor, single point).
CCN(CC)CCNC(=O)c1c(C)[nH]c(/C=C2\C(=O)Nc3ccc(F)cc32)c1C [JCK] read Potency 14.13 µM (inhibitor, single point).
CCN(CC)CCNC(=O)c1c(C)[nH]c(/C=C2\C(=O)Nc3ccc(F)cc32)c1C [CP262] read Potency 19.01 µM (inhibitor, single point).
CCN(CC)CCNC(=O)c1c(C)[nH]c(/C=C2\C(=O)Nc3ccc(F)cc32)c1C [CP291] read Potency 19.01 µM (inhibitor, single point).
CCN(CC)CCNC(=O)c1c(C)[nH]c(/C=C2\C(=O)Nc3ccc(F)cc32)c1C [CP268] read Potency 15.1 µM (inhibitor, single point).
CCN(CC)CCNC(=O)c1c(C)[nH]c(/C=C2\C(=O)Nc3ccc(F)cc32)c1C [PC49] read Potency 11.22 µM (inhibitor, single point).
CCN(CC)CCNC(=O)c1c(C)[nH]c(/C=C2\C(=O)Nc3ccc(F)cc32)c1C [CP192] read Potency 19.01 µM (inhibitor, single point).
CCN(CC)CCNC(=O)c1c(C)[nH]c(/C=C2\C(=O)Nc3ccc(F)cc32)c1C [CP265] read Potency 17.78 µM (inhibitor, single point).
CCN(CC)CCNC(=O)c1c(C)[nH]c(/C=C2\C(=O)Nc3ccc(F)cc32)c1C [CP297] read Potency 16.94 µM (inhibitor, single point).
CCN(CC)CCNC(=O)c1c(C)[nH]c(/C=C2\C(=O)Nc3ccc(F)cc32)c1C [FAB9] read Potency 11.22 µM (inhibitor, single point).